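Viability assay of Plasmodium falciparum sporozoites; the read-out is not stated. The concentration is filed as 10 mM, unlikely as a test dose, so the dose is not known. The record gives no direction; compounds that gave an IC50 in retests scored well above the rest, so higher reads as lower viability. Strong results were mostly tested again. Of about 34,000 compounds tested this way, about 280 (0.84%) reached 50% or more in at least one test.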

Values are the deposited “Percent Effect”, in %.
The controls that fix the scale are not given in the record; negative values are as filed.
Compounds were drawn at random from those tested, without regard to their results.
Two or more numbers in one place are separate tests of the same structure; such repeats can differ widely.

structure	percent effect
CC(C)CCN1CCCC(Cn2cc(CCO)nn2)C1 (stereo not shown)	-1.874
CN(CCc1ccccn1)C(=O)CCC1CCCN(S(C)(=O)=O)C1 (stereo not shown)	-17.95
Cn1c(CN2CCOCC2)nnc1C1CCCN(CC(N)=O)C1 (stereo not shown)	-7.607
Cc1nc(C)c(CN2CCOC(CNc3cccnn3)C2)s1 (stereo not shown)	14.23
Cc1noc(C)c1CN1CC[C@H](OCC2CC2)[C@@H](Cc2ccccc2)C1	9.259
CCC(=O)Nc1ccc2c(ccn2CC(=O)N(CC)CC)c1	6.256
Cc1nc(CN2CCCC(NCc3cccc(C(N)=O)c3)C2)no1 (stereo not shown)	5.026
O=C(Cn1nc(-c2ccc(F)cc2)oc1=O)NCc1ccncc1	9.765
O=C(Cn1nc2c(cc1=O)CCCC2)N[C@@H](Cc1ccccc1)C(=O)O	-4.825
C[C@H]1CN2C[C@H](O)CC2CN1Cc1ccc2nccnc2c1.Cl (stereo partly shown)	-6.138
CN1CCN(Cc2ccncc2)Cc2cccnc21	-6.302
CCc1nc(CN2CCCC(NCc3nc4ccccc4o3)C2)no1 (stereo not shown)	-14.02 & 29.03 & -28.83
COc1cccc(C2(C(=O)NC3CCc4nccn4C3)CCCC2)c1 (stereo not shown)	-35.05
COc1ccccc1-c1nnc2n1NC(N)=C(C#N)S2	-8.447
O=C(NCc1cnc2n1CCN(CC1CCOCC1)C2)c1ccno1.O=C(O)C(F)(F)F	12.52
O=C(O)C(F)(F)F.[H][C@]12CCCN(Cc3ccc(OC)cc3)[C@@]1([H])CN(C(=O)c1ccco1)C2	-3.244
COCCn1c2c(ccc1=O)CC(NC(=O)c1cscn1)CC2 (stereo not shown)	0.08518
NC(=O)C1CCN(c2ncccc2C(=O)N2CCc3ccccc32)C1 (stereo not shown)	-18.25
COc1ccc(C(C)NC(=O)Cn2ccc(=O)n(C)c2=O)cc1F (stereo not shown)	15.4
COCCC1COC2(CCN(C(=O)Cc3ccccc3)CC2)C1 (stereo not shown)	-0.6014
CCCn1[nH]cc/c1=N\C(=O)CN1CCc2cnc(CC)nc2C1	-1135
c1ccc(Cc2noc(CN3CCCC(Cn4cncn4)C3)n2)cc1 (stereo not shown)	-10.85 & -10.83 & 7.488
O=C(Cc1cccc(F)c1F)NS(=O)(=O)c1cncc(Cl)c1	-4.72
CCOc1ccc(Cl)c(C(=O)N2CCN(C(=O)OC)CC2)n1	2.147
O=C1CCC[C@]2(CN(S(=O)(=O)C3CCCCC3)C[C@H]2c2cccnc2)N1	1.561
[H][C@]12CC[C@](O)(c3ccc(C)cc3)[C@@]1([H])CN(S(=O)(=O)CC)C2	-4.713
O=c1ccc(S(=O)(=O)N2CCCC2)cn1CC1CCCCO1 (stereo not shown)	-3.201
CCOc1ccc(Cl)c(C(=O)N2CCCN(CC(N)=O)CC2)n1	-1.757
CCn1cnnc1CNC(=O)N1CCN(c2cccs2)CC1	6.214
Cc1nn(C)c(Cl)c1C1CCCN1C(=O)c1ccnc(N(C)C)c1 (stereo not shown)	7.041
Cc1c(C(=O)NC2(C#N)CCSC2)cnn1-c1ccccc1Cl (stereo not shown)	15.45
CC(=O)NCCCC(=O)NC(C)c1nnc2n1CCC2 (stereo not shown)	-1.739
O=C(O)C(F)(F)F.[H][C@@]12CCN(CC3CC3)[C@@]1([H])CCN2C(=O)c1ccc(C#N)cc1	14.27
O=C1N(CCO)CCCC12CCN(Cc1nnc(C3CC3)o1)C2 (stereo not shown)	-12.5
CCCS(=O)(=O)N1CCN(c2ccnc(N3CCCC3)n2)CC1	-4.262
O=C(O)CCn1ccc2c(nnc3c(-c4ccc(F)cc4)cnn32)c1=O	-3.044
CCOCC1CN(c2ccncn2)Cc2cnn(CC3CC3)c21.O=C(O)C(F)(F)F.O=C(O)C(F)(F)F (stereo not shown)	-16.06
Fc1ccc(C2(c3noc(CCN4CCCCO4)n3)CCOC2)cc1 (stereo not shown)	2.855
O=C(O)C(F)(F)F.[H][C@@]12OCCN(C(=O)c3ccccc3C)[C@@]1([H])CC[C@H]2OCCN(C)C	-1.14
CCc1nccn1C1CCCN(C(=O)c2ccnc(C)n2)C1 (stereo not shown)	-20.34
CNc1nc(C)c(C(=O)N2CCCCC2CN2CCCCCC2)s1 (stereo not shown)	-4.498
COc1cc2c(cc1CN1CCc3sccc3C1C)OCCO2 (stereo not shown)	-1.873
COc1cc(CNC(=O)C2CC(=O)N(C(C)C)C2)ccn1 (stereo not shown)	-0.8052
O=C(NCCNc1ncccn1)N1CCCC(C(F)(F)F)C1 (stereo not shown)	-3.176
Cc1nc(C2CCN(C(=O)c3cnc(N(C)C)nc3)CC2)c2sccn12	-1.599
Cc1nccc(C2CCCCN2Cc2ccc(F)cc2)n1 (stereo not shown)	3.833
Cn1c2c(ccc1=O)CC(NC(=O)c1ccsc1)CC2 (stereo not shown)	5.223
CC(=O)c1cc2ncc(C(=O)NC3CCCCC3)cc2[nH]1	-1.506
COc1ccc(OC)c(-n2cnnc2COC(C)C)c1	-23.08
Cc1cc(-c2cnn(CCNC(=O)c3cc[nH]n3)c2C2CC2)on1	6.196
CN(C)c1ncc(C2Nc3ccccc3C3=NCCCN32)cn1.Cl (stereo not shown)	4.706
CCCc1nc(CN2CCCC(c3noc(C4CC4)n3)C2)no1 (stereo not shown)	-7.534
CCNC(=O)NC(=O)CN1CCC(c2cccc(F)c2)C1 (stereo not shown)	7.779
CN1C(=O)CCC12CCCN(C(=O)c1ccncc1F)C2.O=C(O)C(F)(F)F (stereo not shown)	18.07
CNC(=O)CCc1cc(C2CCCN2C(=O)CO)nc(C)n1 (stereo not shown)	11.22
Cc1cccc(-c2nc(CN3CCc4cncnc4C3)no2)c1	-6.2 & 19.01 & -1.151
Cc1ccc(=O)n(CC2(O)CCN(Cc3cccs3)CC2)n1	-0.1308
Cc1nn(-c2ccccc2)cc1C(=O)N1CCCC(n2ccnc2C)C1 (stereo not shown)	13.67

The last 3 entries again:

structure	percent effect
Cc1cccc(-c2nc(CN3CCc4cncnc4C3)no2)c1	-6.2 & 19.01 & -1.151
Cc1ccc(=O)n(CC2(O)CCN(Cc3cccs3)CC2)n1	-0.1308
Cc1nn(-c2ccccc2)cc1C(=O)N1CCCC(n2ccnc2C)C1 (stereo not shown)	13.67

The values are deposited in ChEMBL (CHEMBL3988442, “University of Dundee, Small-Polar-MMV Screening Library” (2021)).